Experimental data: publication PMC12767855
These are yes or no findings as the source states them, for the method shown. Binding seen in cells or lysates may run through a third protein. These calls come from enrichment with a bait or labelling near it, and not all partners need be listed. Where a sequence is shown, tags or fusion partners need not be part of it.

The chains behind the UniProt entries cited, without tags or fusion partners.
UniProt Q08943: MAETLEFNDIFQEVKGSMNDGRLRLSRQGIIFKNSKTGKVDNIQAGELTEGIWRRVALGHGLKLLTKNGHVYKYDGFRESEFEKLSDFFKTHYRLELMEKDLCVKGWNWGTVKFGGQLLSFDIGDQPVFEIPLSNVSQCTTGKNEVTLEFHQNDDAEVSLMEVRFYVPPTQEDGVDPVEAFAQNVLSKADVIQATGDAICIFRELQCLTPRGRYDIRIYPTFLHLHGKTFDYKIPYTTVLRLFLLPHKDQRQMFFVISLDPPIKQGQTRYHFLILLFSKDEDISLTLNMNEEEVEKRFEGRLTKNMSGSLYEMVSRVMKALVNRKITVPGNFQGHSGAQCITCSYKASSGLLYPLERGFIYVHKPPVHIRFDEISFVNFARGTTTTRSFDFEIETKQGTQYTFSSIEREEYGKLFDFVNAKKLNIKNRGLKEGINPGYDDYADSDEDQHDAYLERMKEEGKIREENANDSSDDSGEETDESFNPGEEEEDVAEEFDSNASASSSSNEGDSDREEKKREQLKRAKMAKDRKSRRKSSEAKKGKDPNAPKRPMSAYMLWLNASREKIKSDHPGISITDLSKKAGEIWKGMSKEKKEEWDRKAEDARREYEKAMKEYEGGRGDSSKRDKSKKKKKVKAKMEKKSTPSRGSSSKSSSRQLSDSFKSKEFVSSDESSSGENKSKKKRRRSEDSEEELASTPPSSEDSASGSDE
UniProt Q61142: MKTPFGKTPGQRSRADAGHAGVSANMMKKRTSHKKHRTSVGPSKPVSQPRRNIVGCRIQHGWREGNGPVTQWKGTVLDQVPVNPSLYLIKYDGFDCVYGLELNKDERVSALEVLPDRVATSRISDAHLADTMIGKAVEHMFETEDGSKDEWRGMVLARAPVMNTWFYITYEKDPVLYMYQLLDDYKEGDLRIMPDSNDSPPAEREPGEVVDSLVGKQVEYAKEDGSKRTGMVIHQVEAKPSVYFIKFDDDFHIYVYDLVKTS
UniProt Q6PDQ2: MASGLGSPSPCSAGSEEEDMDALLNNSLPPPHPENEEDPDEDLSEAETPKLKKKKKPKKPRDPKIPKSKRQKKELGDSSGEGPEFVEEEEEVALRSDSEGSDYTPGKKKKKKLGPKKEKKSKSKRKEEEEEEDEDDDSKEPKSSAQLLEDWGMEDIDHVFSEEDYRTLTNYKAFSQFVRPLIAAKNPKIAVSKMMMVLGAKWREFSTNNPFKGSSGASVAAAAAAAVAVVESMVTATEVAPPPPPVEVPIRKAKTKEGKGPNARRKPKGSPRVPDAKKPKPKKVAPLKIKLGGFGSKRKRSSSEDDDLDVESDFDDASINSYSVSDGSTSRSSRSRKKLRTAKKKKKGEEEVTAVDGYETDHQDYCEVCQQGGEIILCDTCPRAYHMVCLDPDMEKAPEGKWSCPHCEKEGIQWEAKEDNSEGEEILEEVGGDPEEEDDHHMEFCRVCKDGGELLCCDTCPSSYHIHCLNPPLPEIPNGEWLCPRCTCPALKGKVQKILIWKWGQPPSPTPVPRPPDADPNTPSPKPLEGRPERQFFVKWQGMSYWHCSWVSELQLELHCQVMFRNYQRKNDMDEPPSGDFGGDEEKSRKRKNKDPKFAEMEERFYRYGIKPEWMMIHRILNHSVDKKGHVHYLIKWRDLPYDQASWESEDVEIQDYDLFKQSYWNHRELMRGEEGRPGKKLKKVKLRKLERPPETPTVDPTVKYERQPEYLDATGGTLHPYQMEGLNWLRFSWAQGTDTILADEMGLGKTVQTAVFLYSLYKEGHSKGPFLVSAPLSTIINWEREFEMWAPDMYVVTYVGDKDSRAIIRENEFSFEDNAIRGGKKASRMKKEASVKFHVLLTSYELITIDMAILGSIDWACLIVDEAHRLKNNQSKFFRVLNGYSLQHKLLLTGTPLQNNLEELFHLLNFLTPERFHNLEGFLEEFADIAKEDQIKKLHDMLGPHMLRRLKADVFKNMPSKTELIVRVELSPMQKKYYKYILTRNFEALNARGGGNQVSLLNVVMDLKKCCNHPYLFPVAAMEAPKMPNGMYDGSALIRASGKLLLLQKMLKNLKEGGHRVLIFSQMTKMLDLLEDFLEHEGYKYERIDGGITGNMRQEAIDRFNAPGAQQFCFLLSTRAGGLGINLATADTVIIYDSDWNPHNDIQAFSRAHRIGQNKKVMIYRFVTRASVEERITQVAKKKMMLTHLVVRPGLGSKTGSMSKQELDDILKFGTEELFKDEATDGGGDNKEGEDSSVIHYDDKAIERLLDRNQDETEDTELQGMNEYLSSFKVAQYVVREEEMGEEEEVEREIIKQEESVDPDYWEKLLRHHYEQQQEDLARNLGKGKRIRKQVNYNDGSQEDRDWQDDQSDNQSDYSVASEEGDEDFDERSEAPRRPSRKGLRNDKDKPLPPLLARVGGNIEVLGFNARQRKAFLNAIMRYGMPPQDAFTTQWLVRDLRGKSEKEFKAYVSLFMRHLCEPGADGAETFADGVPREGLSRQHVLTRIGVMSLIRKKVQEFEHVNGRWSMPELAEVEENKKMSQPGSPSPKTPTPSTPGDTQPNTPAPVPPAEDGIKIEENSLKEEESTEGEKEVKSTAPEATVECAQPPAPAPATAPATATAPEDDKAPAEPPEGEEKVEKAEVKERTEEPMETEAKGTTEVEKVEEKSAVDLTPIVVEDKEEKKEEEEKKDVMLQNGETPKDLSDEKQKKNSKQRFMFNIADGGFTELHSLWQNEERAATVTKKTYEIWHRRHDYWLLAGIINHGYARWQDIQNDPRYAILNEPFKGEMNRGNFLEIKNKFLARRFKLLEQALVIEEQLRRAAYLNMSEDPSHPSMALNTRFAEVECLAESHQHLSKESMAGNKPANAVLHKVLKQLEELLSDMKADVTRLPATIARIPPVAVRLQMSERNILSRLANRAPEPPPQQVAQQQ
UniProt A2AKX3: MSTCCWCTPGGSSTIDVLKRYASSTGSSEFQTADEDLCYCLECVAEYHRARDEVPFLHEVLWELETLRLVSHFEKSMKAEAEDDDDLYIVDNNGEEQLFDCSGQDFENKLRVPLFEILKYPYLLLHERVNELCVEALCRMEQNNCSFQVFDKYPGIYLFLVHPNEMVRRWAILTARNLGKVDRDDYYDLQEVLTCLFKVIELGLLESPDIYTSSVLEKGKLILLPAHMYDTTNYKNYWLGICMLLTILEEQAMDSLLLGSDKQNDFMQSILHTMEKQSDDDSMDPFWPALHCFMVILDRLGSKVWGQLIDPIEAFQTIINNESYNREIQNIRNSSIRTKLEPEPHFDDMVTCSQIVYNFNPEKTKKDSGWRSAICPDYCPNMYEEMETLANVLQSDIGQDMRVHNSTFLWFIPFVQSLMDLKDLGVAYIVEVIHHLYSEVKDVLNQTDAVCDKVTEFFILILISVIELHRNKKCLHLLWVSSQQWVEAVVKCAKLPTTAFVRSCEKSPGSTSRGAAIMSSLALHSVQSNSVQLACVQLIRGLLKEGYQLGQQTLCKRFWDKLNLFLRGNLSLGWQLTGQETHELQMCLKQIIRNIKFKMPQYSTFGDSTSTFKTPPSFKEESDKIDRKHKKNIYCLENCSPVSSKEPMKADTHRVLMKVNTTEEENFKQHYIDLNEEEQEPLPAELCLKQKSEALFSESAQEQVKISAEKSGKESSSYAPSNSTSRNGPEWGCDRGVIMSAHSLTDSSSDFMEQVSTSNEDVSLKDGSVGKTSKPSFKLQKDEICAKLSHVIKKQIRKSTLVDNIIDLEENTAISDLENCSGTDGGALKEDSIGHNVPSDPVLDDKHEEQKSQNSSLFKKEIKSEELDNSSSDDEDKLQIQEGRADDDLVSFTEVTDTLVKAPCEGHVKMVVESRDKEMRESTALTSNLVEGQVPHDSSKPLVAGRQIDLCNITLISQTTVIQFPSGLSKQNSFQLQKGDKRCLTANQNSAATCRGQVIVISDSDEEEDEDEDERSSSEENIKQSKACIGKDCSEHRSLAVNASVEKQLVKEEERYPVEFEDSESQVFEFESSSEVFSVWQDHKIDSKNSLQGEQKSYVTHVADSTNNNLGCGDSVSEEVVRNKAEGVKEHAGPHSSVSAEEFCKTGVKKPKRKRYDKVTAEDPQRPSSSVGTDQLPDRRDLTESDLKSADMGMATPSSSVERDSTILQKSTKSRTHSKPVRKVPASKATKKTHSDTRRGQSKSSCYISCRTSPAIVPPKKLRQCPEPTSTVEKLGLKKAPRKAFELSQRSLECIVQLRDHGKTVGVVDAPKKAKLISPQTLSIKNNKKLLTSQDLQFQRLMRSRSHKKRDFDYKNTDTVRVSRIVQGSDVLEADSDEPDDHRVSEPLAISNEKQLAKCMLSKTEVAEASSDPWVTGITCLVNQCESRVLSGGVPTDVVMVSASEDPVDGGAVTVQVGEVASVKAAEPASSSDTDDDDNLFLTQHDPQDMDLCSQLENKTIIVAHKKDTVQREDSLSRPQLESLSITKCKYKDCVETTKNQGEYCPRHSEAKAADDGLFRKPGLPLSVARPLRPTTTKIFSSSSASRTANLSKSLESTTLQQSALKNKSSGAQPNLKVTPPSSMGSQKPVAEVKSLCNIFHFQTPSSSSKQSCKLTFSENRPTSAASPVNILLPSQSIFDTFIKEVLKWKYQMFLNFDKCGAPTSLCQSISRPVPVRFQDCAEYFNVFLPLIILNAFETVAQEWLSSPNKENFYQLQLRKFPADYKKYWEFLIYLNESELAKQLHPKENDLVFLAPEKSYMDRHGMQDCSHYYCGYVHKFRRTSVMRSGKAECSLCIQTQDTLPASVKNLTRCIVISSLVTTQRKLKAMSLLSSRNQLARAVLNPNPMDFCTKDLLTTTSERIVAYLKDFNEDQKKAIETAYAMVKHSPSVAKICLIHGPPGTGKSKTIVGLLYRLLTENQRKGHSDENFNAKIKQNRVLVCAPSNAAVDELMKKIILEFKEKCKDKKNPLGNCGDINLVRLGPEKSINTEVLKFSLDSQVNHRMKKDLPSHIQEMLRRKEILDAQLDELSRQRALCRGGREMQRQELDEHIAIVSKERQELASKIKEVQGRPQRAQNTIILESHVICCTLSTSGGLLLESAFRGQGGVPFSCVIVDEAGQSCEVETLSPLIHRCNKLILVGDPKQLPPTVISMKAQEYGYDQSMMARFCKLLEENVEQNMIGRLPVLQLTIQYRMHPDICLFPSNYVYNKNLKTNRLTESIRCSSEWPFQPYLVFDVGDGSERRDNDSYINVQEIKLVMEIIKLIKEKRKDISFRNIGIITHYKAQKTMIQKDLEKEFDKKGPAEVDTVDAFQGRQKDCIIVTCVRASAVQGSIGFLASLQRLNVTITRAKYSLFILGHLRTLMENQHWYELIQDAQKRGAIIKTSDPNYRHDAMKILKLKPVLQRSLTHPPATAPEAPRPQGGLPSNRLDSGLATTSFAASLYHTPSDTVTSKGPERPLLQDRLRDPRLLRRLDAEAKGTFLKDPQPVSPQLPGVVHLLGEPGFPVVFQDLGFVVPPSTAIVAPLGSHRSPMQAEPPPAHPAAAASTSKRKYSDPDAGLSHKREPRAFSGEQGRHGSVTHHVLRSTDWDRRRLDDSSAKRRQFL
UniProt Q8K2F0: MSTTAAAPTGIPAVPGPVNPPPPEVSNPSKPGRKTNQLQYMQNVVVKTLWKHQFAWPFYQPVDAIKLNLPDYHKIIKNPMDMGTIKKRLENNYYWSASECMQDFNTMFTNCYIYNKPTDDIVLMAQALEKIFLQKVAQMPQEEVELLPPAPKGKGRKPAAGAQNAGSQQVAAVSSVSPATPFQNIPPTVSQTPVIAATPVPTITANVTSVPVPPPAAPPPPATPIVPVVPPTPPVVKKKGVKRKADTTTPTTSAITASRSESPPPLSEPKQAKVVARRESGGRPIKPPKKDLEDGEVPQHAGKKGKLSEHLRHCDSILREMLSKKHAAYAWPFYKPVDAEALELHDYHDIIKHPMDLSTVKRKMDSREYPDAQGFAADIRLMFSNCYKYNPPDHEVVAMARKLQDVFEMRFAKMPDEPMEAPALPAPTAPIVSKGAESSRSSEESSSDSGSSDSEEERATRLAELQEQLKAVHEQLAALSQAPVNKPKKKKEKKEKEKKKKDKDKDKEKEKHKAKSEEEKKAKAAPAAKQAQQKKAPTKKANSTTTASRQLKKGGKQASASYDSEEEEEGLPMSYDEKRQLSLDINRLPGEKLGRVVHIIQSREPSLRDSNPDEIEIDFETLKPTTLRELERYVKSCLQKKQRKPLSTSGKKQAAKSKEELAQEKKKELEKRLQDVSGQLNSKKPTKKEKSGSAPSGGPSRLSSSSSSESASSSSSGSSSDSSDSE

T1: 3xFlag-tagged endogenous Par3L (Par3-like) (mouse) (UniProt Q9CSB4)
T1 sequence: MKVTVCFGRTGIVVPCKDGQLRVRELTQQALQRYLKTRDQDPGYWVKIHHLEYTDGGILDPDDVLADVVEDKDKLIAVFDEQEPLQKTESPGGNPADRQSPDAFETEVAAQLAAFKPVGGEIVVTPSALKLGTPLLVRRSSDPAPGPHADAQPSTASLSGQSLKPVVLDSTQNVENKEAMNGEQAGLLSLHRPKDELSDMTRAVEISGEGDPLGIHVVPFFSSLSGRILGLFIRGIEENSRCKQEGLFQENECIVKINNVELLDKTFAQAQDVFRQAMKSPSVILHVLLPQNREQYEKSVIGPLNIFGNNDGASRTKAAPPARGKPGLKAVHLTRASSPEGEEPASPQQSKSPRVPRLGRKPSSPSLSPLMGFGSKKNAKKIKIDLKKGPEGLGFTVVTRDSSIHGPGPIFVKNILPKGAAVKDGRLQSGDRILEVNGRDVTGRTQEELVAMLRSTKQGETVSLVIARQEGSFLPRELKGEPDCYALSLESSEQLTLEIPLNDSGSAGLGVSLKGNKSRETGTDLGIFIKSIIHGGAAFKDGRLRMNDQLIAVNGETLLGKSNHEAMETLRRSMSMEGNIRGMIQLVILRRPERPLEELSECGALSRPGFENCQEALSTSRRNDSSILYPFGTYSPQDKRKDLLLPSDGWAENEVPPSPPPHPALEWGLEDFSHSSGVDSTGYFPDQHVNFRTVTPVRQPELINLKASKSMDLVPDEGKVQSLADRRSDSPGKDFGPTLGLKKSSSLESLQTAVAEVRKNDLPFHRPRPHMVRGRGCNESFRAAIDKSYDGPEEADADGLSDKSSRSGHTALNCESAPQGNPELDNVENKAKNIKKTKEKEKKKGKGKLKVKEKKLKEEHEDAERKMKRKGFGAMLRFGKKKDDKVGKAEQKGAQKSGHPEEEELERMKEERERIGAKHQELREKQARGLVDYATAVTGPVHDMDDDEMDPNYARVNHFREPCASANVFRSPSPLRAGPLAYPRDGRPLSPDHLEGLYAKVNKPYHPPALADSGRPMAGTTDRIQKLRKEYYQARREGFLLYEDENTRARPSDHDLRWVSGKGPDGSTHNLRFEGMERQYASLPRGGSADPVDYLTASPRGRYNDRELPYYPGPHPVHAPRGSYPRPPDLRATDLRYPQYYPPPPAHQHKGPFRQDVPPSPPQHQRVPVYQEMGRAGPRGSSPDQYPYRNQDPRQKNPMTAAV

B1: Retn (protein, UniProt Q99P87 21-114)
chain: SSMPLCPIDEAIDKKIKQDFNSLFPNAIKNIGLNCWTVSSRGKLASCPEGTAVLSCSCGSACGSWDIREEKVCHCQCARIDWTAARCCKLQVAS
B2: Copb2 (protein, UniProt O55029 1-905)
chain: MPLRLDIKRKLTARSDRVKSVDLHPTEPWMLASLYNGSVCVWNHETQTLVKTFEVCDLPVRAAKFVARKNWVVTGADDMQIRVFNYNTLERVHMFEAHSDYIRCIAVHPTQPFILTSSDDMLIKLWDWDKKWSCSQVFEGHTHYVMQIVINPKDNNQFASASLDRTIKVWQLGSSSPNFTLEGHEKGVNCIDYYSGGDKPYLISGADDRLVKIWDYQNKTCVQTLEGHAQNVSCASFHPELPIIITGSEDGTVRIWHSSTYRLESTLNYGMERVWCVASLRGSNNVALGYDEGSIIVKLGREEPAMSMDANGKIIWAKHSEVQQANLKAMGDTEIKDGERLPLAVKDMGSCEIYPQTIQHNPNGRFVVVCGDGEYIIYTAMALRNKSFGSAQEFAWAHDSSEYAIRESNSIVKIFKNFKEKKSFKPDFGAESIYGGFLLGVRSVNGLAFYDWENTELIRRIEIQPKHIFWSDSGELVCIATEESFFILKYLSEKVLAAQETHEGVTEDGIEDAFEVLGEIQEIVKTGLWVGDCFIYTSSVNRLNYYVGGEIVTIAHLDRTMYLLGYIPKDNRLYLGDKELNIVSYSLLVSVLEYQTAVMRRDFSMADKVLPTIPKEQRTRVAHFLEKQGFKQQALTVSTDPEHRFELALQLGELKIAYQLAVEAESEQKWKQLAELAISKCQFSLAQECLHHAQDYGGLLLLATASGNASMVNKLAEGAERDGKNNVAFMSYFLQGKLDACLELLIRTGRLPEAAFLARTYLPSQVSRVVKLWRENLSKVNQKAAESLADPTEYENLFPGLKEAFVVEEWVKETHADLWPAKQYPLVTPNEERNVMEEAKGFQPSRPTAQQEPDGKPASSPVIMASQTTHKEEKSLLELEVDLDNLELEDIDTTDINLDEDILDD
B3: Copz2 (protein, UniProt Q9JHH9 1-205)
chain: MQRPEAWPRPHPGEGASAAQAGGAAPPTRATEQREPSLYTIKAVFILDNDGRRLLAKYYDDTFPSVKEQMVFEKNVFNKTSRTESEIAFLGGMTIVYKSSIDIFLYVVGSSSENELMLMSVLACLFDSLSHILRKNVEKRWLLENMDGAFLVLDETVDGGVILESDPQQVIQKVNFRTDDSGLTEQSVAQVLQSAKEQIKWSLLK
B4: Fip1L1 (endogenous, mouse tissue) (protein, UniProt Q9D824 1-581)
chain: MSAGEVERLVELSGGTGGDEEEEWLYGGPWDVHVHSDLAKDLDENEVERPEEENASANPPSGIEEEAAENGVAKPKVTETEDDSDSDSDDDEDDVHVTIGDIKTGAPQYGSYGTAPVNLNIKAGGRVYGNTGTKVKGVDLDAPGSINGVPLLEVDLDSFEDKPWRKPGADLSDYFNYGFNEDTWKAYCEKQKRIRMGLEVIPVTSTTNKITVQQGRTGNSEKEAALPSTKAEFTSPPSLFKTGLPPSRNSTSSQSQTSTASRKASSSVGKWQDRYGRAESPDLRRLPGAIDVIGQTITISRVEGRRRANENSNIQVLSDRSATEVDNNFSKPPPFFPPGAPPTHLPPPPFLPPPPTVSTAPPLIPPPGIPITVPPPGFPPPPGAPPPSLIPTIESGHSSGYDSRSARAFPYGNVAFPHLTSSAPSWPSLVDTTKQWDYYARREKDRDRDRERDRDRERERDRDRERERTRERERERDHSPTPSVFNSDEERYRYREYAERGYERHRASREKEERHRERRHREKEETRHKSSRSNSRRRHESEEGDSHRRHKHKKSKRSKEGKEAGSEPVPEQESTEAAPAE
B5: Mbnl2 (endogenous, mouse tissue) (protein, UniProt Q8C181 1-373)
chain: MALNVAPVRDTKWLTLEVCRQYQRGTCSRSDEECKFAHPPKSCQVENGRVIACFDSLKGRCSRENCKYLHPPTHLKTQLEINGRNNLIQQKTAAAMLAQQMQFMFPGTPLHPVPTFPVGPTIGTNAAISFAPYLAPVTPGVGLVPTEVLPTTPVIVPGSPPVTVPGSTATQKLLRTDKLEVCREFQRGNCARGETDCRFAHPADSTMIDTNDNTVTVCMDYIKGRCMREKCKYFHPPAHLQAKIKAAQHQANQAAVAAQAAAAAATVMTQSTAKALKRPLEATVDLAFPPGALHPLPKRQALEKSNGASTVFNPSVLHYQQALTSAQLQQHTAFIPTVPMMHSATSATVSAATTPATSVPFAATATANQIILK
B6: Cpsf7 (endogenous, mouse tissue) (protein, UniProt Q8BTV2 1-471)
chain: MSEGVDLIDIYADEEFNQDSEFNNTDQIDLYDDVLTAASQPSDDRSSSTEPPPPVRQEPAPKPNNKTPAILYTYSGLRSRRAAVYVGSFSWWTTDQQLIQVIRSIGVYDVVELKFAENRANGQSKGYAEVVVASENSVHKLLELLPGKVLNGEKVDVRPATRQNLSQFEAQARKRECVRVPRGGIPPRAHSRDSSDSADGRATPSENLVPSSARVDKPPSVLPYFNRPPSALPLMGLPPPPIPPPPPLSSSFGVPPPPPGIHYQHLMPPPPRLPPHLAVPPPGAIPPALHLNPAFFPPPNATVGPPPDTYMKASTPYNHHGSRDSGPPPSTVSEAEFEEIMKRNRAISSSAISKAVSGASAGDYSDAIETLLTAIAVIKQSRVANDERCRVLISSLKDCLHGIEAKSYSVGASGSSSRKRHRSRERSPSRSRESSRRHRDLLHNEDRHDDYFQERNREHERHRDRERDRHH
B7: Igj (protein, UniProt P01592 22-159)
chain: GDDEATILADNKCMCTRVTSRIIPSTEDPNEDIVERNIRIVVPLNNRENISDPTSPLRRNFVYHLSDVCKKCDPVEVELEDQVVTATQSNICNEDDGVPETCYMYDRNKCYTTMVPLRYHGETKMVQAALTPDSCYPD
B8: Luzp1 (protein, UniProt Q8R4U7 1-1068)
chain: MAELTNYKDAASNRHLRFKLQSLSRRLDELEEATKNLQRAEDELLDLQDKVIQAEGSDSSTLAEIEVLRQRVLKIEGKDEEIKRAEDLCHTMKEKLEEEENLTRELKSEIERLQKRMVDLEKLEEALSRSKNECSQLCLSLNEERNLTKKISSELEMLRVKVKELESSEDRLDKTEQSLVSELEKLKSLTLSFVNERKYLNEKEKENEKIIKELTQKLEQNKKMNRDHMRNASTFLERNDLRIEDGISSTLSSKESKRKGSLDYLKQVENETRDKSENEKNRNQEDNKVKDLNQEIEKLKTQIKHFESLEEELKKMRAKNNDLQDNYLTELNRNRSLASQLEEIKLQVRKQKELGNGDIEGEDAFLLGRGRHERTKLKGHGSEASVSKHTSRELSPQHKRERLRNREFALSNEHYSLSSKQASSPVFTNKRAAKASNMGMGTDSGTQETKRTEDRFAPGSSHSEGKRGREQPSVLSRYPPAAQEHTKVWKGAPKPGTESGLKGKVEKTTRTFSDSTHVSVPNDIVGKGDKTSDLSSEAHCGKRGQVPGHASQGTQAVESSCSKAIGALSSSQKASSEGLSKGKKTANGLAADANFSNSKAPILSKYPYSSRSQENILQGFSLPNKEGVDQPVAVVMEDSSQHEALRCRVIKSSGREKPDSDDDLDIESFVTAKLVNTTITPEPEPKPQPNSREKVKSRGGTRTALFENDKNAAIENDSVKPTRPSSNAIEFPDANCAGVKNQRPFSPREALRSRAIIKPVIIDKDVKKIMGGSGTEVVLEKQKSTSKSVTSKVTSSITIYPSDSSGPRAVPSEAPRERHTSTSNIQVGPPELTAISNHVSSPLELSIHKHDITLQLTEAERVGDGSPKNRAEMVVSRSSILIKPSESVEKNSHVPPAETIRWKSHSASSDSRHITVRNAWKSKRDLKCSEDPPTGIGRNMEATNAYTQRPCTDFLELEQPRSQPSEQGARRVGNSGDAPELSPRRTQSSLTASEVLTRRDRMGGAITAASCNHSSSMEEGEDSTFVTSRRIHNPLEHSELPGKQGLPEPEPVWTEERLHPAKPYAEED

Target: T1, 3xFlag-tagged endogenous Par3L (Par3-like) (mouse)
Test: affinity purification with mass spectrometry; anti-Flag M2 magnetic beads on lysates of kidneys and intestine (ground frozen tissue) and of pancreatic epithelial cells of Par3L^Flag/+ mice, WT mice as controls; 2 h at 4 °C; IP lysis buffer 25 mM Hepes pH 7.4, 150 mM NaCl, 0.5% TritonX-100; washes with 450 mM NaCl; on-bead trypsin digest; hits present in at least two of three tagged mice and absent in all controls; the tissue of a hit is told in the row's printed words

| Molecule | binding |
| --- | --- |
| Ssrp1 (from UniProt Q08943 1-708) | binds |
| Spin1 (from UniProt Q61142 1-262) | binds |
| Chd4 (from UniProt Q6PDQ2 1-1915) | binds |
| Setx (from UniProt A2AKX3 1-2646) | binds |
| Brd3 (from UniProt Q8K2F0 1-726) | binds |
| B1 | binds |
| B2 | binds |
| B3 | binds |
| B4 | binds |
| B5 | binds |
| B6 | binds |
| B7 | binds |
| B8 | binds |
